Where “and” joins values, the source holds several entries; their conditions need not be identical. Equal entries are not always repeated. Not every detail of the peptide structures is certain; ends, links or a residue may be inferred. Non-standard residues stand in square brackets, D forms with d. Residues, ends and D or L forms follow the SMILES beside them. pGlu = O=C1CC[C@@H](C(=O)O)N1
Assay: Influence of pyro-modification on stability of partial peptide of lacritin Pyr Lac50-83

## CC[C@H](C)[C@H](NC(=O)[C@H](CO)NC(=O)[C@H](CCCCN)NC(=O)[C@H](CCC(=O)O)NC(=O)[C@@H](NC(=O)[C@@H](NC(=O)[C@H](CO)NC(=O)[C@H](CCCCN)NC(=O)[C@H](CC(C)C)NC(=O)[C@@H]1CCCN1C(=O)[C@H](CC(N)=O)NC(=O)[C@H](CC(C)C)NC(=O)[C@H](CCC(=O)O)NC(=O)[C@H](CCC(N)=O)NC(=O)[C@H](CCCNC(=N)N)NC(=O)[C@H](CO)NC(=O)[C@H](CO)NC(=O)[C@@H](NC(=O)[C@@H](NC(=O)[C@H](CCCCN)NC(=O)[C@H](C)NC(=O)[C@@H](NC(=O)CNC(=O)[C@@H]1CCC(=O)N1)[C@@H](C)O)C(C)C)[C@@H](C)O)[C@@H](C)CC)C(C)C)C(=O)N[C@@H](CC(C)C)C(=O)N[C@@H](CC(C)C)C(=O)N[C@H](C(=O)N[C@@H](CCC(=O)O)C(=O)N[C@@H](CCC(N)=O)C(=O)N[C@@H](C)C(=O)N[C@@H](CC(C)C)C(=O)N[C@@H](C)C(=O)N[C@@H](CCCCN)C(=O)N[C@@H](C)C(=O)O)[C@@H](C)O [Pyr Lac50-83] ([pGlu]GTAKVTSSRQELNPLKSIVEKSILLTEQALAKA-OH)
  7 days- preservation | residual rate (%): 99.4% and 98.6% and 97.9% and 89.4%
  14 days- preservation | residual rate (%): 100.0% and 98.9% and 97.5% and 81.0%
  21 days- preservation | residual rate (%): 93.5% and 66.6%
  28 days- preservation | residual rate (%): 100.1% and 99.9% and 96.4% and 58.2%

Reference: patent US8518412B2, “Partial peptide of lacritin” (Senju Pharmaceutical Co, Ltd., priority 2009, dated 2013)
